Measurements reported in patent publication US20220273562A1, “HYDROPHOBICALLY ASSOCIATING POLYMER COUNTER ION PAIR COMPLEXES” (MALVERN COSMECEUTICS LIMITED, priority 2019, published 2022).
Where a name gives a salt, the structure may show the parent alone.

Experiment: Stability of the mixtures after 2-4 mths at 4° C.
Assay type: physicochemical
Set-up: key: S-stable; PS—partially stable; NS—not stable
Conditions: SMA 1:1 50 mg, DLPC 20 mg, 2 ml; amine HCl: isopentylamine 3 mg, isobutylamine 9 mg, tyramine 5-6 mg, diphenhydramine 2.5-4 mg, phenylalanine ethyl ester 10 mg, tolazoline 5 mg, naphazoline 8 mg total

Question: For `CN(C)CCOC(c1ccccc1)c1ccccc1` [Diphenhydramine, diphenhydramine hydrochloride, reference compound], which “Stability* After 2-4 mths + at 4° C.” value is on record?
Answer: Its value is “S”.
